Data: article doi:10.1101/2023.03.22.533843

By UniProt entry, the sequences of proteins in these tests, tags left out. Where a name states a change or a piece, a line headed by the entry shows the natural chain unless it says otherwise.
UniProt Q9NWS0, whole entry, stated change not applied: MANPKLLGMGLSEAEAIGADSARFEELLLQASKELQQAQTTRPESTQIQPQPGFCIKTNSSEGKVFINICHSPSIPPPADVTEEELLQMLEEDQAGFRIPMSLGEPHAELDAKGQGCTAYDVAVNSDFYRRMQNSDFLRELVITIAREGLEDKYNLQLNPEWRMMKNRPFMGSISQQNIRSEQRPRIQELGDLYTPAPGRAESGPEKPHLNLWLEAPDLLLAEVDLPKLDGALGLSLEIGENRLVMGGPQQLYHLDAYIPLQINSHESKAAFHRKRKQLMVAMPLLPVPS

Target: PIH1D1 (endogenous prey) (human (endogenous in HEK293)) (UniProt Q9NWS0)
Assay: affinity purification with mass spectrometry

binding: binds
Substance: HSP90AA1 (from UniProt P07900 1-732)

Results are given in words; binding and its absence hold for the method and conditions named. In cells and extracts the contact can be indirect. A yes stands for co-enrichment or nearness to the bait. Other partners may have been found.
